# Reference: patent US6582947B1, “Medical use of gene and vector encoding a multisubstrate deoxyribonucleoside kinase” (BIO VICI, priority 1998, dated 2003)
# Some of these results come from one statement about several compounds together.
# Tested on: osteosarcoma cells transduced with dNK-pLXSN
# Test: Cell proliferation assay (MTT)
# Type: cell-based, human
# Conditions: versus wild-type and LXSN vector cells; four days of drug exposure
structure (smiles),measurement,value
"O=c1[nH]c(=O)n([C@H]2C[C@H](O)[C@@H](CO)O2)cc1/C=C/Br [BVDU, (E)-5-(2-bromovinyl)-2′-deoxyuridine]",higher sensitivity of cells transduced with dNK-LXSN,10- to 1000 fold
